The text below walks through data of the supplement of paper PMC8256030.

For test [1], the system named is SARS-CoV-2 -1 PRF reporter mCherry-FSE-GFP(-1). Nature of the test: mCherry (red) intensity as percent of control; higher = higher upstream reporter expression. Particulars: 10 µM; 24 h; HEK293T.
Test [2] shares this test system. Nature of the test: percent effect, decrease of GFP/mCherry ratio (-1 PRF reporter) relative to controls; higher = stronger frameshift inhibition. Particulars: 10 µM; 24 h; HEK293T.

“And” between values parts separate entries of the source, which are not always exact repeats. Identical values can stand only once. The list shows a part of the results. Single values are uncertain here, since repeats match poorly.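 HEK293T cells were given each compound shortly before transfection with a reporter in which red mCherry is followed by the SARS-CoV-2 frameshift element and then GFP in the −1 frame, so GFP appears only after frameshifting.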

On to `O=C1C(=O)c2ccccc2C(O)=C1C1CCC(c2ccc(Cl)cc2)CC1` (centres undefined) [atovaquone], for which the mCherry in test [1] was determined as 91.2%. Besides, the percent effect in test [2] is -1.41%.

Consider `CC(CN1c2ccccc2Sc2ccccc21)N(C)C` (centres undefined) [promethazine], for which the mCherry in test [1] is 92.1% and 105%. Moreover, the percent effect in test [2] was 2.86% and -10.2%.

For `CCC(=O)OCC(=O)[C@@]1(OC(=O)CC)[C@@H](C)C[C@H]2[C@@H]3CCC4=CC(=O)C=C[C@]4(C)[C@@]3(F)[C@@H](O)C[C@@]21C`, the mCherry in test [1] is 115%. Also, the percent effect in test [2] was -4.08%.

In turn, `CCCCOC(=O)c1ccccc1Nc1cccc(C(F)(F)F)c1` [ufenamate] had a mCherry in test [1] of 95.4%. For the same compound, the percent effect in test [2] is -3.71%.

In test [1], `Cc1ncc(CO)c(C=O)c1O` [Pyridoxal] displayed a mCherry of 90.3%. For the same compound, in test [2], the percent effect is -4.98%.

On to `CC1CNc2c(cccc2S(=O)(=O)N[C@@H](CCCNC(=N)N)C(=O)N2CC[C@@H](C)C[C@@H]2C(=O)O)C1` (some centres undefined) [Argatroban], for which, in test [1], the mCherry was 102% and 103%. The percent effect in test [2] is -2.26% and -1.45%.

With `CN[C@@H]1[C@@H](O)[C@@H](O[C@@H]2[C@@H](O)[C@H](O[C@H]3OC(CN)=CC[C@H]3N)[C@@H](N)C[C@H]2N)OC[C@]1(C)O`, in test [1], the mCherry is 103%. Further, the percent effect in test [2] is -11.7%.

For the compound `CN(C)CC/C=C1\c2ccccc2CSc2ccccc21` [dosulepin], in test [1], the mCherry stood at 87.9%. The percent effect in test [2] is -0.386%.

In test [1], `CN1CCN(CC/C=C2/c3ccccc3Sc3ccc(S(=O)(=O)N(C)C)cc32)CC1` had a mCherry of 119%. Moreover, in test [2], the percent effect was -1.4%.

The compound `CC(=O)O[C@H]1Cc2ccccc2N(C(N)=O)c2ccccc21` [Eslicarbazepine acetate] showed a mCherry in test [1] of 89.4%. Besides, the percent effect in test [2] worked out at 0.793%.

On to `C[C@H](O)[C@H](O)[C@H]1CNc2nc(N)[nH]c(=O)c2N1` [Sapropterin], for which the mCherry in test [1] was determined as 111%. In test [2], the percent effect was -7.31%.

For `CC(C)[C@@H](C)/C=C/[C@@H](C)[C@H]1CC[C@H]2/C(=C/C=C3\C[C@@H](O)CC[C@@H]3C)CCC[C@]12C` [dihydrotachysterol], the mCherry in test [1] was 86.7%. For the same compound, the percent effect in test [2] is -4.54%.

As for `Nc1nc2c(ncn2COCCO)c(=O)[nH]1`, the mCherry in test [1] came to 100%. For the same compound, the percent effect in test [2] was found to be 1.42%.

Compound `OC(CCN1CCCCC1)(c1ccccc1)C1CCCCC1` (centres undefined) [trihexyphenidyl] showed a mCherry in test [1] of 112%. Moreover, the percent effect in test [2] was -7.19%.

In the case of `C[N+]1(C)[C@@H]2CC[C@H]1C[C@@H](OC(=O)C(O)c1ccccc1)C2` (some centres undefined) [homatropine methylbromide], the mCherry in test [1] was 102% and 110%. Besides, in test [2], the percent effect was -2.01% and -7.03%.

In test [1], `CNC(=S)NCCSCc1[nH]cnc1C` [metiamide] showed a mCherry of 100%. Further, in test [2], the percent effect is -4.48%.

Regarding `O=C(O)CCCc1ccccc1`, the mCherry in test [1] is 104%. Also, the percent effect in test [2] was -7.26%.

Consider `CN(C)C[C@@H]1CCn2cc(c3ccccc32)C2=C(C(=O)NC2=O)c2cn(c3ccccc23)CCO1`, for which the mCherry in test [1] was determined as 96%. Besides, the percent effect in test [2] was -0.0576%.

For `CCN(CC)C(=O)c1cccc(C)c1` [diethyltoluamide], the mCherry in test [1] was determined as 85%. Moreover, the percent effect in test [2] is -8.72%.

For the compound `CC(C)(C)NC(=O)[C@@H]1C[C@@H]2CCCC[C@@H]2CN1C[C@@H](O)[C@H](Cc1ccccc1)NC(=O)[C@H](CC(N)=O)NC(=O)c1ccc2ccccc2n1` [Invirase], in test [1], the mCherry was 111%. Also, the percent effect in test [2] was -5.18%.

With `CCCCc1nc(Cl)c(CO)n1Cc1ccc(-c2ccccc2-c2nnn[nH]2)cc1`, in test [1], the mCherry is 87.2%. In addition, in test [2], the percent effect was -4.05%.

In turn, `CC(=O)[C@H]1CC[C@H]2[C@@H]3CC=C4C=C(OC5CCCC5)CC[C@]4(C)[C@H]3CC[C@]12C` [quingestrone] returned a mCherry in test [1] of 90.5%. Also, the percent effect in test [2] was -0.488%.

Consider `C[C@H](N[C@@H](CCc1ccccc1)C(=O)O)C(=O)N1Cc2ccccc2C[C@H]1C(=O)O` [quinaprilat], for which, in test [1], the mCherry came to 107%. Further, in test [2], the percent effect was -1.38%.

In test [1], `CNC(=O)c1cnn(-c2nc(N)c3ncn([C@@H]4O[C@H](CO)[C@@H](O)[C@H]4O)c3n2)c1` [regadenoson] came in with a mCherry of 106%. In addition, in test [2], the percent effect is 0.293%.

In turn, `C[C@@H]1C/C=C/C=C/C=C/C=C/[C@H](O[C@@H]2O[C@H](C)[C@@H](O)[C@H](N)[C@@H]2O)C[C@@H]2O[C@](O)(C[C@@H](O)C[C@H]3O[C@@H]3/C=C/C(=O)O1)C[C@H](O)[C@H]2C(=O)O` [Pimaricin] yielded a mCherry in test [1] of 112%. In addition, in test [2], the percent effect was -2.12%.

`O=c1oc2ccccc2c(O)c1Cc1c(O)c2ccccc2oc1=O` gave a mCherry in test [1] of 107%. The percent effect in test [2] was -4.91%.

`O=C1O[C@H]([C@@H](O)CO)C(O)=C1O` [Vitamin C] gave a mCherry in test [1] of 74.8%. In addition, in test [2], the percent effect is -5.31%.

`COc1ccc(-c2nc3cc(C4=NNC(=O)CC4C)ccc3[nH]2)cc1` (centres undefined) [pimobendan] came in with a mCherry in test [1] of 123%. Also, in test [2], the percent effect is -12.9%.

In the case of `CCOc1ccc2ccccc2c1C(=O)N[C@@H]1C(=O)N2[C@@H]1SC(C)(C)[C@@H]2C(=O)O`, the mCherry in test [1] came to 99.8%. Also, in test [2], the percent effect is -3.17%.

Take `CC1(C)S[C@@H]2[C@H](NC(=O)[C@H](NC(=O)N3CCN(S(C)(=O)=O)C3=O)c3ccccc3)C(=O)N2[C@H]1C(=O)O` [Mezlin]: in test [1], the mCherry was found to be 115%. Moreover, in test [2], the percent effect was -5.09%.

In the case of `CCN(CC)CCNc1ccc(CO)c2sc3ccccc3c(=O)c12` [hycanthone], the mCherry in test [1] is 92.6%. In test [2], the percent effect was -4.45%.

Consider `N=C(N)NC(=O)Cc1c(Cl)cccc1Cl`, for which, in test [1], the mCherry amounted to 97.9%. Besides, the percent effect in test [2] is -2.03%.
